Reference: doi:10.1101/2025.08.29.668156

T1: ST6GALNAC1 fused to ultraID (UniProt Q9NSC7)
T1 sequence: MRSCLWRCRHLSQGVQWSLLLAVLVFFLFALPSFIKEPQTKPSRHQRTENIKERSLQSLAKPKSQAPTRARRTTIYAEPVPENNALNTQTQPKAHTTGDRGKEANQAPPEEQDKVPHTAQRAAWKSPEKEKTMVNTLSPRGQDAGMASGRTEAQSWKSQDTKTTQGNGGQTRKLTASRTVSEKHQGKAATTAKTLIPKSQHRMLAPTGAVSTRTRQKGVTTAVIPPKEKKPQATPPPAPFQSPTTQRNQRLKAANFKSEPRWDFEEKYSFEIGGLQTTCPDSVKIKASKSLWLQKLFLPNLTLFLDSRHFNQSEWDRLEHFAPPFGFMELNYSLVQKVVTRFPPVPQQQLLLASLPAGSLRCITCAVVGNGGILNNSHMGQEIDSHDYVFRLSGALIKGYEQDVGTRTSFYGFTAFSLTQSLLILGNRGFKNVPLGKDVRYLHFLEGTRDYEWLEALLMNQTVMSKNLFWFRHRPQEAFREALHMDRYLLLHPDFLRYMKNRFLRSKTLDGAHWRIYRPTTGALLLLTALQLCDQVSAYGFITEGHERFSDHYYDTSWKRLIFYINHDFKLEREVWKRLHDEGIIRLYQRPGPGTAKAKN


target: T1, ST6GALNAC1 fused to ultraID; assay: proximity labelling

Binder | binding
CHST12 (protein, UniProt Q9NRB3 1-414) MTKARLFRLWLVLGSVFMILLIIVYWDSAGAAHFYLHTSFSRPHTGPPLPTPGPDRDRELTADSDVDEFLDKFLSAGVKQSDLPRKETEQPPAPGSMEESVRGYDWSPRDARRSPDQGRQQAERRSVLRGFCANSSLAFPTKERAFDDIPNSELSHLIVDDRHGAIYCYVPKVACTNWKRVMIVLSGSLLHRGAPYRDPLRIPREHVHNASAHLTFNKFWRRYGKLSRHLMKVKLKKYTKFLFVRDPFVRLISAFRSKFELENEEFYRKFAVPMLRLYANHTSLPASAREAFRAGLKVSFANFIQYLLDPHTEKLAPFNEHWRQVYRLCHPCQIDYDFVGKLETLDEDAAQLLQLLQVDRQLRFPPSYRNRTASSWEEDWFAKIPLAWRQQLYKLYEADFVLFGYPKPENLLRD | binds
CHPF2 (protein, UniProt Q9P2E5 1-772) MRLSSLLALLRPALPLILGLSLGCSLSLLRVSWIQGEGEDPCVEAVGERGGPQNPDSRARLDQSDEDFKPRIVPYYRDPNKPYKKVLRTRYIQTELGSRERLLVAVLTSRATLSTLAVAVNRTVAHHFPRLLYFTGQRGARAPAGMQVVSHGDERPAWLMSETLRHLHTHFGADYDWFFIMQDDTYVQAPRLAALAGHLSINQDLYLGRAEEFIGAGEQARYCHGGFGYLLSRSLLLRLRPHLDGCRGDILSARPDEWLGRCLIDSLGVGCVSQHQGQQYRSFELAKNRDPEKEGSSAFLSAFAVHPVSEGTLMYRLHKRFSALELERAYSEIEQLQAQIRNLTVLTPEGEAGLSWPVGLPAPFTPHSRFEVLGWDYFTEQHTFSCADGAPKCPLQGASRADVGDALETALEQLNRRYQPRLRFQKQRLLNGYRRFDPARGMEYTLDLLLECVTQRGHRRALARRVSLLRPLSRVEILPMPYVTEATRVQLVLPLLVAEAAAAPAFLEAFAANVLEPREHALLTLLLVYGPREGGRGAPDPFLGVKAAAAELERRYPGTRLAWLAVRAEAPSQVRLMDVVSKKHPVDTLFFLTTVWTRPGPEVLNRCRMNAISGWQAFFPVHFQEFNPALSPQRSPPGPPGAGPDPPSPPGADPSRGAPIGGRFDRQASAEGCFYNADYLAARARLAGELAGQEEEEALEGLEVMDVFLRFSGLHLFRAVEPGLVQKFSLRDCSPRLSEELYHRCRLSNLEGLGGRAQLAMALFEQEQANST | binds
CHST14 (protein, UniProt Q8NCH0 1-376) MFPRPLTPLAAPNGAEPLGRALRRAPLGRARAGLGGPPLLLPSMLMFAVIVASSGLLLMIERGILAEMKPLPLHPPGREGTAWRGKAPKPGGLSLRAGDADLQVRQDVRNRTLRAVCGQPGMPRDPWDLPVGQRRTLLRHILVSDRYRFLYCYVPKVACSNWKRVMKVLAGVLDSVDVRLKMDHRSDLVFLADLRPEEIRYRLQHYFKFLFVREPLERLLSAYRNKFGEIREYQQRYGAEIVRRYRAGAGPSPAGDDVTFPEFLRYLVDEDPERMNEHWMPVYHLCQPCAVHYDFVGSYERLEADANQVLEWVRAPPHVRFPARQAWYRPASPESLHYHLCSAPRALLQDVLPKYILDFSLFAYPLPNVTKEACQQ | binds
CHPF (protein, UniProt Q8IZ52 1-775) MRASLLLSVLRPAGPVAVGISLGFTLSLLSVTWVEEPCGPGPPQPGDSELPPRGNTNAARRPNSVQPGAEREKPGAGEGAGENWEPRVLPYHPAQPGQAAKKAVRTRYISTELGIRQRLLVAVLTSQTTLPTLGVAVNRTLGHRLERVVFLTGARGRRAPPGMAVVTLGEERPIGHLHLALRHLLEQHGDDFDWFFLVPDTTYTEAHGLARLTGHLSLASAAHLYLGRPQDFIGGEPTPGRYCHGGFGVLLSRMLLQQLRPHLEGCRNDIVSARPDEWLGRCILDATGVGCTGDHEGVHYSHLELSPGEPVQEGDPHFRSALTAHPVRDPVHMYQLHKAFARAELERTYQEIQELQWEIQNTSHLAVDGDQAAAWPVGIPAPSRPASRFEVLRWDYFTEQHAFSCADGSPRCPLRGADRADVADVLGTALEELNRRYHPALRLQKQQLVNGYRRFDPARGMEYTLDLQLEALTPQGGRRPLTRRVQLLRPLSRVEILPVPYVTEASRLTVLLPLAAAERDLAPGFLEAFATAALEPGDAAAALTLLLLYEPRQAQRVAHADVFAPVKAHVAELERRFPGARVPWLSVQTAAPSPLRLMDLLSKKHPLDTLFLLAGPDTVLTPDFLNRCRMHAISGWQAFFPMHFQAFHPAVAPPQGPGPPELGRDTGRFDRQAASEACFYNSDYVAARGRLAAASEQEEELLESLDVYELFLHFSSLHVLRAVEPALLQRYRAQTCSARLSEDLYHRCLQSVLEGLGSRTQLAMLLFEQEQGNST | binds

More lines, now with the values ahead:

binding | Binder
binds | GALNT3 (protein, UniProt Q14435 1-633) MAHLKRLVKLHIKRHYHKKFWKLGAVIFFFIIVLVLMQREVSVQYSKEESRMERNMKNKNKMLDLMLEAVNNIKDAMPKMQIGAPVRQNIDAGERPCLQGYYTAAELKPVLDRPPQDSNAPGASGKAFKTTNLSVEEQKEKERGEAKHCFNAFASDRISLHRDLGPDTRPPECIEQKFKRCPPLPTTSVIIVFHNEAWSTLLRTVHSVLYSSPAILLKEIILVDDASVDEYLHDKLDEYVKQFSIVKIVRQRERKGLITARLLGATVATAETLTFLDAHCECFYGWLEPLLARIAENYTAVVSPDIASIDLNTFEFNKPSPYGSNHNRGNFDWSLSFGWESLPDHEKQRRKDETYPIKTPTFAGGLFSISKEYFEYIGSYDEEMEIWGGENIEMSFRVWQCGGQLEIMPCSVVGHVFRSKSPHSFPKGTQVIARNQVRLAEVWMDEYKEIFYRRNTDAAKIVKQKAFGDLSKRFEIKHRLQCKNFTWYLNNIYPEVYVPDLNPVISGYIKSVGQPLCLDVGENNQGGKPLIMYTCHGLGGNQYFEYSAQHEIRHNIQKELCLHAAQGLVQLKACTYKGHKTVVTGEQIWEIQKDQLLYNPFLKMCLSANGEHPSLVSCNPSDPLQKWILSQND
binds | MAN2A1 (protein, UniProt Q16706 1-1144) MKLSRQFTVFGSAIFCVVIFSLYLMLDRGHLDYPRNPRREGSFPQGQLSMLQEKIDHLERLLAENNEIISNIRDSVINLSESVEDGPKSSQSNFSQGAGSHLLPSQLSLSVDTADCLFASQSGSHNSDVQMLDVYSLISFDNPDGGVWKQGFDITYESNEWDTEPLQVFVVPHSHNDPGWLKTFNDYFRDKTQYIFNNMVLKLKEDSRRKFIWSEISYLSKWWDIIDIQKKDAVKSLIENGQLEIVTGGWVMPDEATPHYFALIDQLIEGHQWLENNIGVKPRSGWAIDPFGHSPTMAYLLNRAGLSHMLIQRVHYAVKKHFALHKTLEFFWRQNWDLGSVTDILCHMMPFYSYDIPHTCGPDPKICCQFDFKRLPGGRFGCPWGVPPETIHPGNVQSRARMLLDQYRKKSKLFRTKVLLAPLGDDFRYCEYTEWDLQFKNYQQLFDYMNSQSKFKVKIQFGTLSDFFDALDKADETQRDKGQSMFPVLSGDFFTYADRDDHYWSGYFTSRPFYKRMDRIMESHLRAAEILYYFALRQAHKYKINKFLSSSLYTALTEARRNLGLFQHHDAITGTAKDWVVVDYGTRLFHSLMVLEKIIGNSAFLLILKDKLTYDSYSPDTFLEMDLKQKSQDSLPQKNIIRLSAEPRYLVVYNPLEQDRISLVSVYVSSPTVQVFSASGKPVEVQVSAVWDTANTISETAYEISFRAHIPPLGLKVYKILESASSNSHLADYVLYKNKVEDSGIFTIKNMINTEEGITLENSFVLLRFDQTGLMKQMMTKEDGKHHEVNVQFSWYGTTIKRDKSGAYLFLPDGNAKPYVYTTPPFVRVTHGRIYSEVTCFFDHVTHRVRLYHIQGIEGQSVEVSNIVDIRKVYNREIAMKISSDIKSQNRFYTDLNGYQIQPRMTLSKLPLQANVYPMTTMAYIQDAKHRLTLLSAQSLGVSSLNSGQIEVIMDRRLMQDDNRGLEQGIQDNKITANLFRILLEKRSAVNTEEEKKSVSYPSLLSHITSSLMNHPVIPMANKFSSPTLELQGEFSPLQSSLPCDIHLVNLRTIQSKVGNGHSNEAALILHRKGFDCRFSSKGTGLFCSTTQGKILVQKLLNKFIVESLTPSSLSLMHSPPGTQNISEINLSPMEISTFRIQLR
binds | MAN2A2 (protein, UniProt P49641 1-1150) MKLKKQVTVCGAAIFCVAVFSLYLMLDRVQHDPTRHQNGGNFPRSQISVLQNRIEQLEQLLEENHEIISHIKDSVLELTANAEGPPAMLPYYTVNGSWVVPPEPRPSFFSISPQDCQFALGGRGQKPELQMLTVSEELPFDNVDGGVWRQGFDISYDPHDWDAEDLQVFVVPHSHNDPGWIKTFDKYYTEQTQHILNSMVSKLQEDPRRRFLWAEVSFFAKWWDNINVQKRAAVRRLVGNGQLEIATGGWVMPDEANSHYFALIDQLIEGHQWLERNLGATPRSGWAVDPFGYSSTMPYLLRRANLTSMLIQRVHYAIKKHFAATHSLEFMWRQTWDSDSSTDIFCHMMPFYSYDVPHTCGPDPKICCQFDFKRLPGGRINCPWKVPPRAITEANVAERAALLLDQYRKKSQLFRSNVLLVPLGDDFRYDKPQEWDAQFFNYQRLFDFFNSRPNLHVQAQFGTLSDYFDALYKRTGVEPGARPPGFPVLSGDFFSYADREDHYWTGYYTSRPFYKSLDRVLEAHLRGAEVLYSLAAAHARRSGLAGRYPLSDFTLLTEARRTLGLFQHHDAITGTAKEAVVVDYGVRLLRSLVNLKQVIIHAAHYLVLGDKETYHFDPEAPFLQVDDTRLSHDALPERTVIQLDSSPRFVVLFNPLEQERFSMVSLLVNSPRVRVLSEEGQPLAVQISAHWSSATEAVPDVYQVSVPVRLPALGLGVLQLQLGLDGHRTLPSSVRIYLHGRQLSVSRHEAFPLRVIDSGTSDFALSNRYMQVWFSGLTGLLKSIRRVDEEHEQQVDMQVLVYGTRTSKDKSGAYLFLPDGEAKPYVPKEPPVLRVTEGPFFSEVVAYYEHIHQAVRLYNLPGVEGLSLDISSLVDIRDYVNKELALHIHTDIDSQGIFFTDLNGFQVQPRRYLKKLPLQANFYPMPVMAYIQDAQKRLTLHTAQALGVSSLKDGQLEVILDRRLMQDDNRGLGQGLKDNKRTCNRFRLLLERRTVGSEVQDSHSTSYPSLLSHLTSMYLNAPALALPVARMQLPGPGLRSFHPLASSLPCDFHLLNLRTLQAEEDTLPSAETALILHRKGFDCGLEAKNLGFNCTTSQGKVALGSLFHGLDVVFLQPTSLTLLYPLASPSNSTDVYLEPMEIATFRLRLG

Results are given in words; binding and its absence hold for the method and conditions named. Binding seen in cells or lysates may run through a third protein. Here binding means that the protein was enriched with, or labelled near, the bait; the list need not be complete. Where a sequence is shown, tags or fusion partners need not be part of it.
